Results are given in words; binding and its absence hold for the method and conditions named. In cells and extracts the contact can be indirect. Tags and fused reporters may be left off the sequences shown.
Target: T1, GST-Sec23 (S. cerevisiae) (UniProt P15303)
T1 sequence: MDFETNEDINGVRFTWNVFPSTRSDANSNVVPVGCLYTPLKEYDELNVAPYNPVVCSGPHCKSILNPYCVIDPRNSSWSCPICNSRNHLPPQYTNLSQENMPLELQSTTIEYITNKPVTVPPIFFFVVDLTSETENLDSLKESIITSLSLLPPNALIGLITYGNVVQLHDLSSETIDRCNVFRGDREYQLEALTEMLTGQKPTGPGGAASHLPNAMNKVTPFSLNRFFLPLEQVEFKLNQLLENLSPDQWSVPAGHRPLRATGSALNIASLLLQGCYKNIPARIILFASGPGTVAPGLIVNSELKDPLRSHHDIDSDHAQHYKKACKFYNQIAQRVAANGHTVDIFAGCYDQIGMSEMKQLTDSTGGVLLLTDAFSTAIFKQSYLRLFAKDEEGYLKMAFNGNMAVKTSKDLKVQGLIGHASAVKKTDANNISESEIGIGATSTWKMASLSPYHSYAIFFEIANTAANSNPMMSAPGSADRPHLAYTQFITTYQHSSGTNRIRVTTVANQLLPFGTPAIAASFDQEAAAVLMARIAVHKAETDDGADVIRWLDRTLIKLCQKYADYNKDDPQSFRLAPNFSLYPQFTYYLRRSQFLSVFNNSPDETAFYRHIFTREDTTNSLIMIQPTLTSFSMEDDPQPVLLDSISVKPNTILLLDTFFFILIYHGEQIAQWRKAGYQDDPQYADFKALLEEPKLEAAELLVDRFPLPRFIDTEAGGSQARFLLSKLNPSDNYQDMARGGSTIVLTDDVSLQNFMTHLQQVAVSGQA
Assay: pull-down

Question: “Grh1 with deletion of the C-terminal IDR (S. cerevisiae) (domain or fragment)” was tested. Which binding did it give?
Answer: Its binding is “no binding”.

From article doi:10.1101/2021.09.30.462231
